For at least one entry, the source does not settle the construct or the ends of the probe.

The subject of this data set is SlHB8-GST (Solanum lycopersicum). Put plainly: EMSA. The conditions noted are these: biotin probe, cold competitor 5x and 20x; Thermo EMSA kit; pH and temperature not stated; recombinant protein; protein details: GST (pGEX4T1); label: biotin (unlabeled as cold competitor). For orientation: A gel shift assay detects complexes by their altered migration in electrophoresis.

Take “GTCTATATTCAATCATTGTTATGCTATATGC (double strand) [SlDYT1 promoter BS probe, wild type]”: the binding result was “binds”.

(Values after publication PMC11395002.)
